These are yes or no findings as the source states them, for the method shown. For some assays here: In cells and extracts the contact can be indirect. Some results given as binding are weak or reduced against the parent protein; the word gives no strength.
How the values were obtained:
[1] = target: CD45 on the surface of Jurkat cells (clone E6-1) and primary human αβ T cells (human) (UniProt P08575); assay: flow cytometry, FIG. 12B upper panels
[2] = target: CD45 on the surface of Jurkat cells (clone E6-1) and primary human αβ T cells (human) (UniProt P08575); assay: flow cytometry, FIG. 12C
[3] = target: CD45 on the surface of Jurkat cells (clone E6-1) and primary human αβ T cells (human) (UniProt P08575); assay: flow cytometry, BTN3A1 on primary αβ T cells with or without CRISPR ablation of CD45
[4] = target: CD45 on the surface of Jurkat cells (clone E6-1) and primary human αβ T cells (human) (UniProt P08575); assay: co-immunoprecipitation with BTN3A1-Fc from OKT3-activated primary αβ T cells after crosslinking, LC-MS/MS
[5] = target: CD45 on the surface of Jurkat cells (clone E6-1) and primary human αβ T cells (human) (UniProt P08575); assay: flow cytometry, Fc protein on Jurkat E6-1 (CD45+) vs. J45.01 (CD45 negative) cells

Protein sequences, listed by entry. Tags and fused reporters are not part of them. Lines headed by an entry give the natural chain unless they say otherwise; changes in a name come on top. Residues count along the entry.
UniProt P08575, residues 26-1306: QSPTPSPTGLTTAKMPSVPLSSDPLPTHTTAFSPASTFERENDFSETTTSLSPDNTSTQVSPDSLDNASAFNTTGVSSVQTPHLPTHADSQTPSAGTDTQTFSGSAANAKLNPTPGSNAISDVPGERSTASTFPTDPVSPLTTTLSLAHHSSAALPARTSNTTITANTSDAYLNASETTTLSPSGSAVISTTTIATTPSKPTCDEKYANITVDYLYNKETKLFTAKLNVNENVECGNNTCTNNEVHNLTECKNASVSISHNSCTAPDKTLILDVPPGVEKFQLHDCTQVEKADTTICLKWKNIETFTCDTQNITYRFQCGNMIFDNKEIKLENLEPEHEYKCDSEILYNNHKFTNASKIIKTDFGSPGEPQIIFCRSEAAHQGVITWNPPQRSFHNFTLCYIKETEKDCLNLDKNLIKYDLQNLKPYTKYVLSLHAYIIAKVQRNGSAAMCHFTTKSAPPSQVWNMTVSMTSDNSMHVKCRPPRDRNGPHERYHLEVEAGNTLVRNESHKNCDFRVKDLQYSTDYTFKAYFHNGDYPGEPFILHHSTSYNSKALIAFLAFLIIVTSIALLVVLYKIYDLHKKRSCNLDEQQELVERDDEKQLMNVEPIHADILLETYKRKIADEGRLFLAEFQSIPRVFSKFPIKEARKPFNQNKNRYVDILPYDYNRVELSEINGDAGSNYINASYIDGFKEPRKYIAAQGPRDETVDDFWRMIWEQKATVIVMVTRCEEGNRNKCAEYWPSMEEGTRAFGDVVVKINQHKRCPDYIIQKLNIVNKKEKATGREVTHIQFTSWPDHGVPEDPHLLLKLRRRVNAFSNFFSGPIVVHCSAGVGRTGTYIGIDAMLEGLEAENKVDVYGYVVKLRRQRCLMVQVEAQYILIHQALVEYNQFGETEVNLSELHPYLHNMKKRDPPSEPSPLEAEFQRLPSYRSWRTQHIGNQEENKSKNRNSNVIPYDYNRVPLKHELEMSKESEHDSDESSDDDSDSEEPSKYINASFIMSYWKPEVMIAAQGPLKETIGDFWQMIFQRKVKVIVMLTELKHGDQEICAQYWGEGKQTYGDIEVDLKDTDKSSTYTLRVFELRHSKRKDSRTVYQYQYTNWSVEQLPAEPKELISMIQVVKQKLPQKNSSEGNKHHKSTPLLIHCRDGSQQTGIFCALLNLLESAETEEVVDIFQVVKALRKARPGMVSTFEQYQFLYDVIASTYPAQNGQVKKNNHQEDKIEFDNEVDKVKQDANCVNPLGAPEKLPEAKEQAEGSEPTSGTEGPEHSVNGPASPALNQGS
UniProt O00481: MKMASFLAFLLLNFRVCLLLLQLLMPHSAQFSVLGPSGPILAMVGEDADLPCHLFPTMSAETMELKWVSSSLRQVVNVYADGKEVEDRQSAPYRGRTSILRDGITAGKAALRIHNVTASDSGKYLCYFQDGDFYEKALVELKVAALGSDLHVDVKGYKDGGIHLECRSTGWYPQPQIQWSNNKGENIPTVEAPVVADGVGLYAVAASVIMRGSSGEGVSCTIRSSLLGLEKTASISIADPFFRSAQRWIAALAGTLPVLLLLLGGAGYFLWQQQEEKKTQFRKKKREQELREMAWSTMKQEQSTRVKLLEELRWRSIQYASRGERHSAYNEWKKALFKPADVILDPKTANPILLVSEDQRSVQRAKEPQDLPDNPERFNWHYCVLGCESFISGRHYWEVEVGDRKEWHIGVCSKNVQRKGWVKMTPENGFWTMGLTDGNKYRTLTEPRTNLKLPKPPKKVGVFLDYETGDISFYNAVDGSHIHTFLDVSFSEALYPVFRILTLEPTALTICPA

- binding [1]: binds
- binding [2]: binds
- binding [3]: binds
- binding [4]: binds
- binding [5]: binds
Substance: BTN3A1-Fc fusion protein (R&D systems Cat #8539-BT-050) (from UniProt O00481 30-254)
